Results taken from patent US20210324109A1.
No constants are given. Whether binding was seen depends on the method and setting. Binding calls can cover weak binding; strength is not graded here.

Sequences of proteins named here, by UniProt entry; tags and fusion partners are left off. A change or cut given only in a name is not applied to a line headed by its entry.
UniProt P00740: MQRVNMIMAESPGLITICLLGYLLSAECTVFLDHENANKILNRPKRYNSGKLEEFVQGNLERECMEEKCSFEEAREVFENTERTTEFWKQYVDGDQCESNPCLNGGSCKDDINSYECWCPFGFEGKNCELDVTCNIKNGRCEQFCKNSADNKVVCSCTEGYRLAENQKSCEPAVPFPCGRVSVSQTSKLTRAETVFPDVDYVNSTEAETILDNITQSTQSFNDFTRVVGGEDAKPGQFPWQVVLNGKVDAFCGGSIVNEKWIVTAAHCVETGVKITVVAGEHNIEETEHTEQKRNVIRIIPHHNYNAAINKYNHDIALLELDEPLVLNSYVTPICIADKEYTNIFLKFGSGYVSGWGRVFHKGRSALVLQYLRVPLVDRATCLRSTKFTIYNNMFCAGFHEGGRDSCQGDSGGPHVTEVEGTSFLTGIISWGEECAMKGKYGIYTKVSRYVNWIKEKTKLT

How the values were obtained:
[1] = biological target: Factor IXaβ (Enzyme Research Laboratories) (UniProt P00740); assay: ELISA, plate-coated Factor IXa
[2] = biological target: Factor IXaβ (Enzyme Research Laboratories) (UniProt P00740); assay: ELISA, plate-coated Factor IXa 1 µg/ml, anti-human IgG4 detection

binding [1]: binds | binding [2]: binds
B1: hA69-PF (humanized A69 homodimer) (antibody, human IgG4, V domains shown)
VH: EVQLVQSGAEVVKPGSSVKVSCTASGYTFSDYYMHWVRQAPGEGLEWMGYINPSSGYTKYNRKFRDRVTITADKSTSTAYMELSSLRSEDTAVYYCARGGLGYYLDYWGEGTTVTVSS
VL: DIVMTQSPSSLSASVGDRVTITCKASQNVGTAVAWYQQKPGKAPKLLIYSASYRYSGVPSRFSGSRYGTDFTLTISSLQPEDLATYYCQQYSNYITFGQGTKVEIK
